# Assay results taken from PubChem BioAssay AID504467 (National Center for Advancing Translational Sciences (NCATS), 2011).
# Hit rate of the full screen: of about 330,000 compounds, about 7,700 (2.3%) were called active. The shares of active, inactive and inconclusive entries below differ from those in the screen. The call rests on the fitted dose curve; in most records, active means well fitted inhibition curve with a large enough effect; inconclusive means small, poorly fitted or top-dose-only effect, or effect the other way; inactive means flat fitted curve, though single readings scatter. Potencies beside an inconclusive call are fits to weak or partial responses and may not hold up.
# Test: qHTS screen for small molecules that inhibit ELG1-dependent DNA repair in human embryonic kidney (HEK293T) cells expressing luciferase-tagged ELG1; further: nearly all actives have a fitted effect of over 55% in size
# Details: HEK293T ELG1-luciferase reporter, luminescence, 16 h, DNA damage induced by 5-fluorouridine; series mostly up to 46.1 µM
# Outline: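 Cells (2,000 per well) received 5-fluorouridine plus test compound or DMSO and were incubated 16 hr at 37 °C, 5% CO2. Luciferase activity was read by luminescence 30 min after ONE-Glo addition; signal suppression marked inhibition of damage-induced ELG1 function.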
# Potency means the concentration at half of the fitted maximal effect.
row,SMILES,Potency
1,COc1cc(-c2ccc3oc(-c4cccc(C)c4)c(C#CC4(O)CCCCC4)c3c2)cc(OC)c1OC,inactive
2,COc1ccc(Cl)cc1C(=O)NNC(=O)c1cccc(S(=O)(=O)N(C)C)c1,inactive
3,Cc1[nH]n(C(N)=S)c(=O)c1N=Nc1ccc(Br)cc1,"inconclusive: 7.3 µM [activator, partial curve]"
4,Cc1ccc(-n2c(SCC(=O)c3c(N)n(C)c(=O)n(C)c3=O)nc3sc4c(c3c2=O)CCCC4)c(C)c1,"inconclusive: 4.11 µM [inhibitor, full curve]"
5,CC(C)n1c(O)c(/C=C2\C=Nc3ccccc32)sc1=Nc1ccccc1,"inconclusive: 16.4 µM [activator, partial curve, poor fit]"
6,COc1cccc(C2=NN(C(C)=O)C(c3cccs3)C2)c1 (stereo not drawn),"inconclusive: 14.6 µM [activator, partial curve, poor fit]"
7,O=C(NC1CCCCC1)C(c1ccco1)N(C(=O)c1csnn1)C1CCCC1 (stereo not drawn),inactive
8,CCN(CCO)c1ncnc2c1sc1nc(CC(C)C)c3c(c12)CC(C)(C)OC3,"inconclusive: 14.6 µM [inhibitor, partial curve]"
9,CCN(CC)S(=O)(=O)c1cc(NC(=O)CCNC(=O)c2ccccc2Cl)ccc1C,"inconclusive: 18.4 µM [inhibitor, partial curve]"
10,COc1ccccc1C(=O)N/N=C/c1ccc2c(c1)OCO2,"inconclusive: 16.4 µM [activator, partial curve]"
11,Nc1nnc(COc2cccc(C(F)(F)F)c2)s1,"inconclusive: 29.1 µM [activator, partial curve, poor fit]"
12,COc1ccccc1CNC(=O)c1csc(Cc2ccc(Cl)cc2)n1,"inconclusive: 20.6 µM [inhibitor, partial curve, poor fit]"
13,COc1ccc(Oc2ccc(/C=N/NC(=O)c3cccnc3)cc2[N+](=O)[O-])cc1,inactive
14,COc1ccc(-c2c(C)oc3c(CN4CCN(CCO)CC4)c(O)ccc3c2=O)cc1OC,inactive
15,COc1ccc(-n2c(-c3cnccn3)n[nH]c2=S)cc1,inactive
16,Cc1ccc(CNC(=O)Cn2cnc3c(NCc4ccccc4)ncnc32)o1,inactive
17,Cc1cccc(NC(=O)c2ccc3c(c2)C(=O)N(c2ccccc2C)C3=O)n1,inactive
18,Cc1ccc(F)cc1NS(=O)(=O)c1ccc(Cl)s1,inactive
19,CCOc1ccc(S(=O)(=O)N2CCc3cc(OC)c(OC)cc3C2)cc1,inactive
20,COc1cc(NC(=O)CN2CCN(Cc3ccc4c(c3)OCO4)CC2)cc(OC)c1,active: 23.1 µM
21,CCOc1ccc(C2C(C#N)=C(N)SC(N)=C2C#N)cc1OCC,"inconclusive: 16.4 µM [inhibitor, single point]"
22,CC(C)S(=O)(=O)c1nsc2nc(=O)c(/C=C3\C=Nc4ccccc43)c(N)n12,inactive
23,Cc1ccc(CNC(=O)C2COc3ccccc3O2)cc1 (stereo not drawn),"inconclusive: 20.6 µM [activator, single point]"
24,CN(C)CCCN1C(=O)c2cccc3c([N+](=O)[O-])ccc(c23)C1=O,active: 13 µM
25,CCc1cccc(C)c1NC(=O)N(C)C1CCCCC1,"inconclusive: 11.6 µM [activator, partial curve, poor fit]"

# Among those listed so far, four contain a thiophene ring, fused or not:
row,SMILES,Potency
4,Cc1ccc(-n2c(SCC(=O)c3c(N)n(C)c(=O)n(C)c3=O)nc3sc4c(c3c2=O)CCCC4)c(C)c1,"inconclusive: 4.11 µM [inhibitor, full curve]"
6,COc1cccc(C2=NN(C(C)=O)C(c3cccs3)C2)c1 (stereo not drawn),"inconclusive: 14.6 µM [activator, partial curve, poor fit]"
8,CCN(CCO)c1ncnc2c1sc1nc(CC(C)C)c3c(c12)CC(C)(C)OC3,"inconclusive: 14.6 µM [inhibitor, partial curve]"
18,Cc1ccc(F)cc1NS(=O)(=O)c1ccc(Cl)s1,inactive

# Later entries:

row,SMILES,Potency
1,COC(=O)c1cc2ccsc2n1CC(=O)N1CCCc2ccccc21,"inconclusive: 14.6 µM [inhibitor, partial curve, poor fit]"
2,COc1ccc(/C=C/C(=O)O/N=C(\N)c2cccnc2)cc1OC,"inconclusive: 23.1 µM [activator, single point]"
3,Cc1noc(C)c1C(=O)N1CCOCC1,inactive
4,COc1ccc(-c2nc3ccccc3c(=O)n2CCOc2c(C)cccc2C)cc1,inactive
5,C=CCSc1nnc(NC(=O)c2cn(CC)c3nc(C)ccc3c2=O)s1,"inconclusive: 18.3 µM [inhibitor, single point]"
6,COc1ccc2c(c1)C=C([C@@H]1C[C@H]3CN(c4ccccc4)C(=O)[C@]34CCCN14)CO2,"inconclusive: 14.6 µM [inhibitor, partial curve, poor fit]"
7,Cc1cc(C(=O)COC(=O)c2ccc(NC(=O)CC#N)cc2)c(C)n1C1CC1,"inconclusive: 8.2 µM [activator, partial curve]"
8,O=C(O)c1cccc(Nc2nc(-c3ccc([N+](=O)[O-])cc3)nc3ccccc23)c1,inactive
9,CC(=O)c1cccc(NC(=O)C2CCCN(S(=O)(=O)c3ccccc3)C2)c1 (stereo not drawn),"inconclusive: 20.6 µM [inhibitor, single point]"
10,Cc1cccc(NC(=S)NC(=O)Cc2ccccc2)c1C,inactive
11,Cc1ccc(Cl)cc1NC(=O)Cn1cccc1,"inconclusive: 2.31 µM [inhibitor, single point]"
12,Cc1ccc(-n2c(-c3ccccc3)n[nH]c2=S)c(C)c1,inactive
13,CCOC(=O)c1c(C)[nH]c(C)c1C(=O)COC(=O)/C=C/c1ccco1,inactive
14,CCn1c(COc2c(C)cccc2C)nnc1SCC(=O)N1CCN(c2ccccc2)CC1,"inconclusive: 16.4 µM [inhibitor, partial curve, poor fit]"
15,N#CC(Nc1ccccc1)c1ccccc1OCc1ccccc1 (stereo not drawn),inactive
16,CN(c1ccccc1)S(=O)(=O)c1ccc(C(=O)N2CCCC(C(F)(F)F)C2)cc1 (stereo not drawn),"inconclusive: 18.3 µM [inhibitor, partial curve, poor fit]"
17,CN1CCN(/C=N/c2sc3c(c2C#N)CCCCC3)CC1,"inconclusive: 7.31 µM [activator, partial curve]"
18,COCC(C)n1c(SCc2cc(=O)n3cc(C)ccc3n2)nc2ccccc2c1=O (stereo not drawn),"inconclusive: 8.2 µM [activator, partial curve, poor fit]"
19,Cc1ccccc1N1CCN(CCCN2C(=O)CC(=C(c3ccccc3)c3ccccc3)C2=O)CC1,"inconclusive: 16.4 µM [inhibitor, single point]"
20,O=C(Nc1ccc(C(F)(F)F)cc1)c1ccc(NC(=O)C2CCCO2)cc1 (stereo not drawn),"inconclusive: 2.59 µM [inhibitor, full curve]"
21,O=C(O)CC1(CC(=O)Nc2ccccc2N2CCOCC2)CCCC1,"inconclusive: 3.66 µM [activator, single point]"
22,CCn1cc(C=C2C(=O)c3ccccc3C2=O)c2ccccc21,"inconclusive: 32.6 µM [activator, single point]"
23,O=C1C2C3c4ccccc4C(c4ccccc43)[C@@H]2C(=O)N1c1cccnc1 (stereo partly drawn),"inconclusive: 20.6 µM [inhibitor, single point]"
24,CCOC(=O)c1c(-c2ccc(OC)cc2)csc1NC(=O)C1CCCO1 (stereo not drawn),inactive
25,Cc1cc(C[n+]2ccsc2N)c2ncccc2c1,inactive

row,SMILES,Potency
1,N#CCCN(Cc1ccccc1)C(=O)Nc1ccccc1,inactive
2,Cc1ccc(N(CC(=O)NCc2ccc3c(c2)OCO3)C(=O)CCC(=O)Nc2ccccn2)cc1,"inconclusive: 29.1 µM [inhibitor, single point]"
3,Nc1ccc2oc(C3CCCCC3)nc2c1,"inconclusive: 18.3 µM [activator, partial curve]"
4,Cc1ccc(-c2csc(NCCn3c(-c4ccncc4)nc4ccccc43)n2)cc1,"inconclusive: 20.6 µM [inhibitor, single point]"
5,CCN=C1S/C(=C\c2cc(Cl)c(OC)c(OC)c2)C(=O)N1CC,"inconclusive: 20.6 µM [inhibitor, single point]"
6,S=C(NC1CC1)N1CCN(C(=S)NC2CC2)CC1,"inconclusive: 18.3 µM [activator, partial curve, poor fit]"
7,O=C(CCC1CCCCC1)N1CCN(Cc2ccc3c(c2)OCO3)CC1,"inconclusive: 29.1 µM [inhibitor, single point]"
8,CSc1oc(-c2ccc(F)cc2)nc1S(=O)(=O)c1ccc(F)cc1,"inconclusive: 23.1 µM [inhibitor, partial curve, poor fit]"
9,CCC(c1nnnn1C(C)(C)CC)N(CCN1CCOCC1)Cc1cc2cc(C)ccc2[nH]c1=O (stereo not drawn),inactive
10,COc1cc2c(cc1OC)C(C)N(C(C)=O)CC2 (stereo not drawn),"inconclusive: 16.4 µM [activator, partial curve]"
11,COc1ccc(CC(=O)NNC(=O)CSc2nc(C)c(C)c(=O)[nH]2)cc1,inactive
12,COC(=O)c1ccc(NC(=O)C2CCCN2C(=O)OCc2ccccc2)cc1 (stereo not drawn),inactive
13,CC1=C(C#N)C(NC(=O)c2ccc(Cl)cc2)(C(F)(F)F)C(=O)N1 (stereo not drawn),inactive
14,Cc1ccc(S(=O)(=O)N2CCC(C(=O)OCC(=O)N3CCCC(C)C3)CC2)cc1C (stereo not drawn),inactive
15,COc1cccc(OCC(O)CNC(=O)c2oc3ccc(C)cc3c2C)c1 (stereo not drawn),inactive
16,O=C(Nc1ccccc1)N1CC=C(c2ccc(F)cc2)CC1,"inconclusive: 2.31 µM [activator, partial curve, poor fit]"
17,Cc1ccc(CSc2nnc(-c3ccncc3)n2N)cc1,"inconclusive: 23.1 µM [activator, single point]"
18,O=C(O)c1ccccc1C(=O)Nn1cnnc1,inactive
19,COc1ccccc1NC(=O)CSc1ccc(-c2ccc(-n3ccnc3)cc2)nn1,"inconclusive: 17.8 µM [inhibitor, single point]"
20,COc1ccc(C2(C)NC(=O)NC2=O)cc1OC (stereo not drawn),inactive
21,Cc1[nH]n(-c2cccc3ccccc23)c(=O)c1/C=N/c1sc2c(c1C#N)CCC2,inactive
22,O=C(Nc1ccccc1)[C@@H]1[C@@H]2C(=O)N(c3ccc(F)cc3)C(=O)[C@@H]2[C@H]2C=CC=NN21,"inconclusive: 23.1 µM [activator, partial curve, poor fit]"
23,CC(NCc1ccccc1O)c1ccccc1 (stereo not drawn),inactive
